Data taken from PMC7545706.
Results are given in words; binding and its absence hold for the method and conditions named. In cells and extracts the contact can be indirect. These calls come from enrichment with a bait or labelling near it, and not all partners need be listed.

Protein sequences, listed by entry. Tags and fused reporters are not part of them.
UniProt P04020: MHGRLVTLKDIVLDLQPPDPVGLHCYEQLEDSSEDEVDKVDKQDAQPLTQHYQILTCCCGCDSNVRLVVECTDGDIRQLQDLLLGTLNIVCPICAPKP

Biological target: Flag-HPV 11E7 (human papillomavirus type 11) (UniProt P04020)
Assay: affinity purification with mass spectrometry; HaCaT cells stably expressing Flag-HPV 11E7, transfected with poly(dA:dT) for 6 hrs; lysates immunoprecipitated with antibody against the Flag tag; Orbitrap Elite

| Substance | binding |
| --- | --- |
| IFI16 (endogenous, HaCaT) (from UniProt Q16666-1 1-785) | binds |
| TRIM21 (endogenous, HaCaT) (from UniProt P19474-1 1-475) | binds |
